The record followed here is patent publication US5936065A (Cytel Corporation, priority 1995, dated 1999).

The data set in a line: general procedure: Fmoc solid-phase peptide synthesis; Rink amide MBHA resin; DIC/HOBt. Conditions: whole synthesis, scale 5 mmoles.

The substance N-phenylacetyl-Leu-Asp-Phe-D-Pro-NH2 had an isolated mass of 1.8 g.
